Results deposited as PubChem BioAssay AID1508588 (Peter MacCallum Cancer Centre, 2020).

- Assay: 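Which gene losses make BRAF-mutant melanoma cells more responsive to vemurafenib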 (primary screen)
- System: human WM266.4 melanoma cells (BRAF V600 mutant)
- Reagents: siRNA pool against human genes, 40 nM
- Duration: 96 h from transfection to read-out
- Conditions: vemurafenib 300 nM (about IC25), added 48 h after transfection, for 48 h; comparison arm got DMSO vehicle only
- Measured: 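Ratios to non-targeting siRNA for cell gain, counted as DAPI nuclei after minus before drug and averaged over two replicates, and for absorbance-read medium lactate per cell; both binned into fold-change classes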
- Direction: cell gain with vemurafenib: higher = more cell gain than with non-targeting siRNA; lactate per cell with vemurafenib: higher = more lactate made per cell
- Rule for the call: 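a knock-down counts as enhancing when its fold-change classes with vehicle and with vemurafenib, taken together, show a stronger drug effect on cell gain or lactate per cell; exact class pairs not stated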
- Calls: active = enhances vemurafenib effect; inactive = no enhancement seen
Shown is one part, drawn at random, of about 18,000 reagents. In the full data, 790 (4.4%) are marked active. 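Calls rest on a combination of fold-change classes in drug and vehicle arms, not all shown here.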

For TAX1BP3 (Tax1 binding protein 3), the values are cell gain with vemurafenib 0.57; lactate per cell with vemurafenib 0.78; inactive.
Silencing of TRAIP (TRAF interacting protein) resulted in: cell gain with vemurafenib 1.18; lactate per cell with vemurafenib 1.02; inactive.
After knock-down of SLC25A6, the record shows cell gain with vemurafenib 0.98; lactate per cell with vemurafenib 0.76; inactive.
BPNT1 (3'(2'), 5'-bisphosphate nucleotidase 1) gave cell gain with vemurafenib 0.82; lactate per cell with vemurafenib 0.47; inactive.
Depletion of DOT1L (DOT1 like histone lysine methyltransferase) resulted in: cell gain with vemurafenib 0.68; lactate per cell with vemurafenib 1.09; inactive.
Silencing of SACK1C (scaffolding CK1 anchoring protein C) came out at: cell gain with vemurafenib 0.22; lactate per cell with vemurafenib 1.52; inactive.
Depletion of CFLAR (CASP8 and FADD like apoptosis regulator) gave: cell gain with vemurafenib 0.43; lactate per cell with vemurafenib 0.92; inactive.
Knock-down of OR51B4 (olfactory receptor family 51 subfamily B member 4) came out at: cell gain with vemurafenib 0.86; lactate per cell with vemurafenib 0.45; inactive.
CLCA4 (chloride channel accessory 4) gave cell gain with vemurafenib 0.41; lactate per cell with vemurafenib 1.88; inactive.
For F8A2 (coagulation factor VIII associated 2), the entry reads cell gain with vemurafenib 0.4; lactate per cell with vemurafenib 1.19; inactive.
After knock-down of BABAM1 (BRISC and BRCA1 A complex member 1) the results were cell gain with vemurafenib 0.51; lactate per cell with vemurafenib 0.71; inactive.
Depletion of COL6A5 (collagen type VI alpha 5 chain) gave: cell gain with vemurafenib 1.15; lactate per cell with vemurafenib 0.71; inactive.
Silencing of POLR3E (RNA polymerase III subunit E) gave: cell gain with vemurafenib 0.41; lactate per cell with vemurafenib 1.82; inactive.
Knock-down of RBM7 (RNA binding motif protein 7) came out at: cell gain with vemurafenib -0.03; lactate per cell with vemurafenib 0.82; active.
MAP4K1 (mitogen-activated protein kinase kinase kinase kinase 1) scored cell gain with vemurafenib -0.04; lactate per cell with vemurafenib 1.94; inactive.
Knock-down of FAM156A (family with sequence similarity 156 member A) came out at: cell gain with vemurafenib 0.29; lactate per cell with vemurafenib 0.12; active.
Against DNMBP (dynamin binding protein), the values are cell gain with vemurafenib 0.74; lactate per cell with vemurafenib 0.42; inactive.
For FNDC5 (fibronectin type III domain containing 5), the values are cell gain with vemurafenib 0.14; lactate per cell with vemurafenib 2.01; inactive.
RANGAP1 (Ran GTPase activating protein 1) scored cell gain with vemurafenib 0.58; lactate per cell with vemurafenib 0.68; inactive.
Knock-down of ZNF556 (zinc finger protein 556) came out at: cell gain with vemurafenib 0.7; lactate per cell with vemurafenib 0.79; inactive.
After knock-down of PCNA (proliferating cell nuclear antigen) the results were cell gain with vemurafenib 0.26; lactate per cell with vemurafenib 1.56; inactive.
Knock-down of IL22RA1 (interleukin 22 receptor subunit alpha 1) gave: cell gain with vemurafenib 0.06; lactate per cell with vemurafenib 0.77; inactive.
MAG (myelin associated glycoprotein) gave cell gain with vemurafenib 0.43; lactate per cell with vemurafenib 1.23; inactive.
For CRTC1 (CREB regulated transcription coactivator 1), the entry reads cell gain with vemurafenib 0.49; lactate per cell with vemurafenib 1.12; inactive.
Against TMED7 (transmembrane p24 trafficking protein 7), the entry reads cell gain with vemurafenib 0.63; lactate per cell with vemurafenib 1.31; inactive.
For CCDC138 (coiled-coil domain containing 138) the deposit lists cell gain with vemurafenib 0.84; lactate per cell with vemurafenib 0.62; inactive.
After knock-down of RPN2 (ribophorin II) the results were cell gain with vemurafenib 0.1; lactate per cell with vemurafenib 2.21; inactive.
With knock-down of ACOT4 (acyl-CoA thioesterase 4) the results were cell gain with vemurafenib 0.44; lactate per cell with vemurafenib 0.8; inactive.
PRNP (prion protein (Kanno blood group)) showed cell gain with vemurafenib 0.95; lactate per cell with vemurafenib 0.96; inactive.
Depletion of DIDO1 (death inducer-obliterator 1) resulted in: cell gain with vemurafenib 0.25; lactate per cell with vemurafenib 0.88; inactive.
For ANAPC16 (anaphase promoting complex subunit 16), the entry reads cell gain with vemurafenib 0.46; lactate per cell with vemurafenib 1.54; inactive.
IFT88 (intraflagellar transport 88) gave cell gain with vemurafenib 0.82; lactate per cell with vemurafenib 0.63; inactive.
With knock-down of CHIC1 (cysteine rich hydrophobic domain 1), the screen gave cell gain with vemurafenib 0.34; lactate per cell with vemurafenib 1.03; inactive.
Against SVOPL (SVOP like) the deposit lists cell gain with vemurafenib 0.32; lactate per cell with vemurafenib 0.79; inactive.
After knock-down of ESAM (endothelial cell adhesion molecule) the results were cell gain with vemurafenib 0.47; lactate per cell with vemurafenib 1.04; inactive.
Knock-down of PLAC9 (placenta associated 9) resulted in: cell gain with vemurafenib 0.15; lactate per cell with vemurafenib 0.8; inactive.
For DCD (dermcidin), the values are cell gain with vemurafenib 0.27; lactate per cell with vemurafenib 0.9; inactive.
PAX4 (paired box 4) scored cell gain with vemurafenib 0.73; lactate per cell with vemurafenib 1.24; inactive.
Against NPL (N-acetylneuraminate pyruvate lyase), the entry reads cell gain with vemurafenib 0.8; lactate per cell with vemurafenib 0.6; inactive.
NEK2 (NIMA related kinase 2) showed cell gain with vemurafenib 0.45; lactate per cell with vemurafenib 1.63; inactive.
IRS4 (insulin receptor substrate 4) showed cell gain with vemurafenib 0.84; lactate per cell with vemurafenib 0.82; inactive.
GATD1 (glutamine amidotransferase class 1 domain containing 1) scored cell gain with vemurafenib 0.36; lactate per cell with vemurafenib 1.14; inactive.
For TFDP2 (transcription factor Dp-2), the entry reads cell gain with vemurafenib 0.41; lactate per cell with vemurafenib 1.54; inactive.
PARP11 (poly(ADP-ribose) polymerase family member 11) gave cell gain with vemurafenib 0.62; lactate per cell with vemurafenib 0.95; inactive.
Depletion of UHMK1 (U2AF homology motif kinase 1) resulted in: cell gain with vemurafenib 0.09; lactate per cell with vemurafenib 0.29; active.
CLN3 (CLN3 lysosomal/endosomal transmembrane protein, battenin) gave cell gain with vemurafenib 0.39; lactate per cell with vemurafenib 1.9; inactive.
KRT13 (keratin 13) scored cell gain with vemurafenib 0.6; lactate per cell with vemurafenib 0.91; inactive.
For RFPL3 (ret finger protein like 3), the values are cell gain with vemurafenib 0.33; lactate per cell with vemurafenib 0.84; inactive.
C6orf118 (chromosome 6 open reading frame 118) showed cell gain with vemurafenib 0.39; lactate per cell with vemurafenib 0.59; inactive.
With knock-down of VWA2 (von Willebrand factor A domain containing 2) the results were cell gain with vemurafenib 0.02; lactate per cell with vemurafenib 0.98; inactive.
TFIP11 (tuftelin interacting protein 11) scored cell gain with vemurafenib 0.08; lactate per cell with vemurafenib 3.62; inactive.
Against GPR82 (G protein-coupled receptor 82) the deposit lists cell gain with vemurafenib 0.48; lactate per cell with vemurafenib 0.84; inactive.
